# Measurements as given in the supplement of paper PMC8728848.
# The list shows a part of the results.
# Assays:
# Assay in all cases: glycan array binding signal (z-score within array); higher = stronger binding
# Conditions in all cases: glycan notation: IUPAC condensed, linker removed
# [1] = biological target: Neu5Ac(a2-6)GalNAc(b1-4)GlcNAc6S
# Method in brief: (§1)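 From the Consortium for Functional Glycomics database, 3228 arrays were curated, keeping only those whose protein sequence was available. Binding is given as a within-array Z-score averaged across arrays sharing a protein sequence and across linkers. Negative Z-scores can be read as non-binding.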
# [2] = biological target: Neu5Ac(a2-6)GlcNAc(b1-4)GlcNAc
# Method in brief: as §1
# [3] = biological target: Neu5Ac(a2-6)GlcNAc(b1-4)GlcNAc(b1-4)GlcNAc
# Method in brief: as §1
# Neu5Ac(a2-8)Neu5Ac = biological target: Neu5Ac(a2-8)Neu5Ac
# Method in brief: as §1
# [4] = biological target: Neu5Ac(a2-8)Neu5Ac(a2-3)Gal(b1-3)GalNAc(b1-4)[Neu5Ac(a2-8)Neu5Ac(a2-3)]Gal(b1-4)Glc
# Method in brief: as §1
# [5] = biological target: Neu5Ac(a2-8)Neu5Ac(a2-3)Gal(b1-4)Glc
# Method in brief: as §1
# [6] = biological target: Neu5Ac(a2-8)Neu5Ac(a2-3)[Gal(b1-3)GalNAc(b1-4)]Gal(b1-4)Glc
# Method in brief: as §1
# [7] = biological target: Neu5Ac(a2-8)Neu5Ac(a2-3)[GalNAc(b1-4)]Gal(b1-4)Glc
# Method in brief: as §1
# [8] = biological target: Neu5Ac(a2-8)Neu5Ac(a2-8)Neu5Ac
# Method in brief: as §1
# [9] = biological target: Neu5Ac(a2-8)Neu5Ac(a2-8)Neu5Ac(a2-3)Gal(b1-4)Glc
# Method in brief: as §1
# [10] = biological target: Neu5Ac(a2-8)Neu5Ac(a2-8)Neu5Ac(a2-3)[GalNAc(b1-4)]Gal(b1-4)Glc
# Method in brief: as §1
# [11] = biological target: Neu5Ac(a2-8)Neu5Ac(a2-8)Neu5Ac(a2-8)Neu5Ac(a2-3)[GalNAc(b1-4)]Gal(b1-4)Glc
# Method in brief: as §1
# [12] = biological target: Neu5Ac(b2-6)Gal(b1-4)GlcNAc
# Method in brief: as §1
# Neu5Ac(b2-6)GalNAc = biological target: Neu5Ac(b2-6)GalNAc
# Method in brief: as §1
# [13] = biological target: Neu5Ac9Ac(a2-3)Gal(b1-3)GlcNAc
# Method in brief: as §1
# [14] = biological target: Neu5Ac9Ac(a2-3)Gal(b1-4)GlcNAc
# Method in brief: as §1
# [15] = biological target: Neu5Ac9Ac(a2-6)Gal(b1-4)GlcNAc
# Method in brief: as §1
# [16] = biological target: Neu5Gc(a2-3)Gal(b1-3)GlcNAc
# Method in brief: as §1
# [17] = biological target: Neu5Gc(a2-3)Gal(b1-3)[Fuc(a1-4)]GlcNAc
# Method in brief: as §1
# Neu5Gc(a2-3)Gal(b1-4)Glc = biological target: Neu5Gc(a2-3)Gal(b1-4)Glc
# Method in brief: as §1
# [18] = biological target: Neu5Gc(a2-3)Gal(b1-4)GlcNAc
# Method in brief: as §1
# [19] = biological target: Neu5Gc(a2-3)Gal(b1-4)[Fuc(a1-3)]GlcNAc
# Method in brief: as §1
# [20] = biological target: Neu5Gc(a2-6)Gal(b1-4)GlcNAc
# Method in brief: as §1
# Neu5Gc(a2-6)GalNAc = biological target: Neu5Gc(a2-6)GalNAc
# Method in brief: as §1
# [21] = biological target: Neu5Gc(b2-6)Gal(b1-4)GlcNAc
# Method in brief: as §1
binder,measurement,setting,value
Intelectin-1a (Mus musculus) (protein) AEWSHPQFEKAEENLDTNRWGNSFFSSLPRSCKEIKQEHTKAQDGLYFLRTKNGVIYQTFCDMTTAGGGWTLVASVHENNMRGKCTVGDRWSSQQGNRADYPEGDGNWANYNTFGSAEAATSDDYKNPGYFDIQAENLGIWHVPNKSPLHNWRKSSLLRYRTFTGFLQHLGHNLFGLYKKYPVKYGEGKCWTDNGPALPVVYDFGDARKTASYYSPSGQREFTAGYVQFRVFNNERAASALCAGVRVTGCNTEHHCIGGGGFFPEGNPVQCGDFASFDWDGYGTHNGYSSSRKITEAAVLLFYR,glycan array binding signal (z-score),[1],0.868
same,glycan array binding signal (z-score),[2],-0.053
same,glycan array binding signal (z-score),[3],-0.544
same,glycan array binding signal (z-score),Neu5Ac(a2-8)Neu5Ac,-1.09
same,glycan array binding signal (z-score),[4],-1.3
same,glycan array binding signal (z-score),[5],0.434
same,glycan array binding signal (z-score),[6],-1.14
same,glycan array binding signal (z-score),[7],-0.791
same,glycan array binding signal (z-score),[8],0.231
same,glycan array binding signal (z-score),[9],-0.483
same,glycan array binding signal (z-score),[10],0.726
same,glycan array binding signal (z-score),[11],0.079
same,glycan array binding signal (z-score),[12],-0.753
same,glycan array binding signal (z-score),Neu5Ac(b2-6)GalNAc,0.517
same,glycan array binding signal (z-score),[13],-1.63
same,glycan array binding signal (z-score),[14],-1.31
same,glycan array binding signal (z-score),[15],-0.95
same,glycan array binding signal (z-score),[16],0.012
same,glycan array binding signal (z-score),[17],-1.1
same,glycan array binding signal (z-score),Neu5Gc(a2-3)Gal(b1-4)Glc,0.613
same,glycan array binding signal (z-score),[18],-1.06
same,glycan array binding signal (z-score),[19],0.726
same,glycan array binding signal (z-score),[20],0.855
same,glycan array binding signal (z-score),Neu5Gc(a2-6)GalNAc,-0.33
same,glycan array binding signal (z-score),[21],0.206
